The other results are listed elsewhere or left out. Single values are uncertain, as repeats are few or missing.

For the assay, the system named is Saccharomyces cerevisiae BY4743. Put plainly: growth (OD600) relative to untreated control; higher = less growth inhibition. Conditions: compound concentration: 133 uM; 20 h. The method, then:
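NMCCC compounds (133 uM, no IPBC) tested alone against Saccharomyces cerevisiae BY4743 in YPD, 96-well plates, starting OD600 ~0.1. Growth was read as OD600 at 20 h and expressed as % of the untreated control. Single pass.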
`CC(C)(C)c1ccc(C(=O)NCC(=O)OCC(=O)NCc2ccco2)cc1` had a growth of 105%.
The compound `COc1cc(CSc2nnc(C)s2)c(OC)cc1Br` had a growth of 87.5%.
The same measure for `CC(C)CCn1c(SC(C)C)nc2c1c(=O)[nH]c(=O)n2C`: 97.1%; for `CCCn1c(O)nnc1SCc1cc(C(=O)OC)c(C)o1`: 110%.
The same measure for `CCOC(=O)C1CCN(C(=O)c2cc(-c3cccnc3)on2)CC1`: 95.4%; for `C[S](=O)(=O)NC1=CC=CC(=C1)\C2=N\N(C(C2)C3=CC=CC=C3O)[S](C)(=O)=O` (stereo not drawn): 101%.
Next, `CCC1CCCCN1C(=O)COC(=O)c1[nH]c(C)c(C(C)=O)c1C` (stereo not drawn): 102%.
The compound `COC(=O)C(Nc1nccs1)(OC)C(F)(F)F` (stereo not drawn) gave a growth of 91.1%.
As to `CCOC(=O)C(Sc1nnc(C(F)(F)F)n1C)c1ccccc1` (stereo not drawn), the growth came to 106%.
`Cc1c(C(=O)NC(C)CCc2ccccc2)oc2c1C(=O)CCC2` (stereo not drawn) returned a growth of 104%.
The same measure for `COC1=CC=C(CCC2CCN(CC2)CN3\C=C(Br)/C=C\C3=O)C=C1`: 89.7%.
In turn, `O=C(COC(=O)c1ccccc1NC(=O)c1ccsc1)NC1CCCC1` showed a growth of 99.9%.
Next, `C=C1c2ccccc2C(=O)N1CC(=O)Nc1ccc(Cl)c(Cl)c1`: 85.7%.
The same measure for `O=C(COC(=O)CCC(=O)c1ccc2c(c1)OCCO2)Nc1ccc(Cl)cc1C(F)(F)F`: 86%; for `COCCn1c(N2CCN(C)CC2)nc2c1c(=O)n(C)c(=O)n2C`: 95.2%; for `CCOC(=O)c1c(C)[nH]c(C)c1S(=O)(=O)N1CCN(Cc2ccccc2)CC1`: 108%.
In turn, `CC/1=C/C(=O)N(/C=N1)C(NC(=O)C2=CC=CC=C2)C(=O)C3=CC=CC=C3` (stereo not drawn) displayed a growth of 93.3%.
Next, `CCOc1ccccc1NC(=O)c1cnn2cccnc12`: 97%; `Cc1ccc(C)c(OCC(=O)N2CCc3ccccc3C2)c1`: 89.7%.
With `O=C(NC1(C(F)(F)F)NC(=O)N(Cc2ccncc2)C1=O)c1ccccc1` (stereo not drawn), the growth is 103%.
The same measure for `Cc1cccc(N2CCN(S(=O)(=O)c3cc(Br)cnc3N)CC2)c1C`: 109%; for `CNc1snc(C)c1C(=O)OCc1coc(-c2cccs2)n1`: 101%.
Consider `CCOC(=O)N1CCN(C(=O)CN(c2ccccc2)S(=O)(=O)c2ccc(OCC)cc2)CC1`, for which the growth stood at 103%.
Next, `NC(=O)c1sc2nc(-c3cccs3)ccc2c1N`: 96%.
The same measure for `NC(=O)c1cc(Cl)ccc1OCC(=O)Nc1ccccc1Cc1ccccc1`: 94.9%; for `CC(=O)Nc1cc(NC(C)=O)cc(C(=O)OC(C)C(=O)N2c3ccccc3NC(=O)C2(C)C)c1` (stereo not drawn): 99%.
Next, `CCc1c(C)nc2nc(NCc3cc(Br)ccc3OC)nn2c1O`: 91.6%; `CCn1c(O)nnc1SCc1csc(C)n1`: 103%; `CCOC(=O)C(NC(=O)Cc1ccccc1)(Nc1ccc(S(N)(=O)=O)cc1)C(F)(F)F` (stereo not drawn): 94.8%.
For the compound `Oc1ccc(Cl)cc1-c1cc(-c2ccco2)[nH]n1`, the growth is 3.52%.
Next, `CC(NC(=O)CSc1nc(O)c2ccsc2n1)c1cccs1` (stereo not drawn): 97%; `Cc1ccc(CNc2ccc(-n3nc(C)cc3C)nn2)cc1`: 105%; `CCC(=O)N1CCc2cc(Br)c(S(=O)(=O)N3CCN(CC)CC3)cc21`: 95.4%.
The same measure for `CC(=O)c1c[nH]c(C(=O)OCC(=O)N2CC(=O)Nc3ccccc32)c1`: 93.6%.
Regarding `COC(=O)c1ccc(CSc2nnc(CNC(=O)c3ccccc3F)o2)o1`, the growth came to 97.3%.
For `CCCc1n[nH]c(SCC(=O)NC(C)c2ccc3c(c2)OCCO3)n1` (stereo not drawn), the growth was found to be 110%.
The same measure for `Cn1cc(CCNC(=O)NC2CCOc3ccccc32)cn1` (stereo not drawn): 96.9%; for `O=C(CNC(=O)c1ccc2ncsc2c1)OCc1ccccc1`: 89.7%.
